From patent US8541395B2 (priority 2009, dated 2013)

Sequences of proteins named here, by UniProt entry; tags and fusion partners are left off.
UniProt Q13936, whole entry: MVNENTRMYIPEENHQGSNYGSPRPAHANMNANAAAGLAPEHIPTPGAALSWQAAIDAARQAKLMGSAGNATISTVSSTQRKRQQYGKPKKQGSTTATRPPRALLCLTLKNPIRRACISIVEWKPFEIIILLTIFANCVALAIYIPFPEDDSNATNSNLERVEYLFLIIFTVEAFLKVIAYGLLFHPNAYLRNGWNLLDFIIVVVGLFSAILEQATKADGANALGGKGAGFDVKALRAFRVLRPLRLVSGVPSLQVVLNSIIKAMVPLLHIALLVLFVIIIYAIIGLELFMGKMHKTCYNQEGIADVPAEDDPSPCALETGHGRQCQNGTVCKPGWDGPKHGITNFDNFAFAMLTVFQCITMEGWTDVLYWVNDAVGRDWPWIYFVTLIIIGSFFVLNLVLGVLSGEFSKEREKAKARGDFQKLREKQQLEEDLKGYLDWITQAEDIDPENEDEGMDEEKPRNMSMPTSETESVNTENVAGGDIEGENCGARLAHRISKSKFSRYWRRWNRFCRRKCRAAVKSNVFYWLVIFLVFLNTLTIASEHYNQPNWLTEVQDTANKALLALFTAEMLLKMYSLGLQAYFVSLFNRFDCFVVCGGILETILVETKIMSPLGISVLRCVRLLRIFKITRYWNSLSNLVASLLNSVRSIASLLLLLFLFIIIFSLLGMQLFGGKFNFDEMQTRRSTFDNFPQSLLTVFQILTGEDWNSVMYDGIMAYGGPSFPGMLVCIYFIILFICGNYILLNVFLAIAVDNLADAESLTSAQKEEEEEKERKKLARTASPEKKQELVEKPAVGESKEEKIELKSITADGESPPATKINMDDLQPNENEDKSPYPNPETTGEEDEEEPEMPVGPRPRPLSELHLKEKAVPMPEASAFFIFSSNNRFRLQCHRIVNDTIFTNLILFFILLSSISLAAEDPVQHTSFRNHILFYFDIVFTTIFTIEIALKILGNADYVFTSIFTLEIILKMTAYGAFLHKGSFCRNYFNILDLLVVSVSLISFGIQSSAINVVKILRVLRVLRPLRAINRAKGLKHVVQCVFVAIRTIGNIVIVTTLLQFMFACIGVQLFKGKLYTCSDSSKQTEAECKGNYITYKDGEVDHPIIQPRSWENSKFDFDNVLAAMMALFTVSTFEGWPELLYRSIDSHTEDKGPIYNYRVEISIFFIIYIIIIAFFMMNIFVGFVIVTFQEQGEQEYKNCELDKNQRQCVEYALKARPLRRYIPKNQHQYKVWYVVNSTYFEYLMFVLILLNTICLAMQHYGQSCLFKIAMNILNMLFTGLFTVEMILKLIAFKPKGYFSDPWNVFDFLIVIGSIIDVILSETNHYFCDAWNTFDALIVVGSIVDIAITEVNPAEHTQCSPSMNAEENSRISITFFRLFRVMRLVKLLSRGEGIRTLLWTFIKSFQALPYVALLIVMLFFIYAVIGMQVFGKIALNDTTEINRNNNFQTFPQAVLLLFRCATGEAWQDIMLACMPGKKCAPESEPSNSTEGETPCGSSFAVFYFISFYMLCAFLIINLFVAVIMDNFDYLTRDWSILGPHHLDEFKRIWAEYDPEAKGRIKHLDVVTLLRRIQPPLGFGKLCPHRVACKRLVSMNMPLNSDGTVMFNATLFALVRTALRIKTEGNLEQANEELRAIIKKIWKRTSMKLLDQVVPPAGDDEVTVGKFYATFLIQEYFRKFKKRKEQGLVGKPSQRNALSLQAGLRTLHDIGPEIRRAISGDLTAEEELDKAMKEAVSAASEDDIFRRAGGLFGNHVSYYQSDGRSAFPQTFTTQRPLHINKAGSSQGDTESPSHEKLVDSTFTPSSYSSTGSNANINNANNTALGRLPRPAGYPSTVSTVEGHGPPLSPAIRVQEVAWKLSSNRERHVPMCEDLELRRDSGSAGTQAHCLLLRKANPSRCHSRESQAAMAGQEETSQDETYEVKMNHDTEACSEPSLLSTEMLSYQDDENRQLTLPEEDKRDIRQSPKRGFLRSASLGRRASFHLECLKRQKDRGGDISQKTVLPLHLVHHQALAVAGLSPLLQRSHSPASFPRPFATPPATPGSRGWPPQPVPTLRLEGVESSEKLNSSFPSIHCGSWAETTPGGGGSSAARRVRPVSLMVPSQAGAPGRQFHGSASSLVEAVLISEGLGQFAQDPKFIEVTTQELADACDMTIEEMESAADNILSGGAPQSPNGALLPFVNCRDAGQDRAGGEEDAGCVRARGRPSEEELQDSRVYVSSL

Molecular target: Cav1.2 (Homo sapiens, UniProt Q13936)
Assay: in vitro

## COC(=O)C1=C(C)NC(C)=C(C(=O)OC)C1c1ccccc1[N+](=O)[O-] [Nifedipine]
  inhibition at 5 min, 1 µM: 93.6%
